The reference is the same well before dosing, and untreated signal decays as well.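 Fibroblast labels denote human fibroblasts, mainly primary ones from uterus (C12385, HUF), lung (H6013), bone (Hs27A), adrenal (HADF) and skin (WS1), plus mammary HMF and breast cancer-associated Hs343T. Cancer cells are basal-like or mesenchymal-like triple-negative breast cancer lines. A hit is a response shift exceeding 3x replicate standard deviation. The tissue of the other fibroblasts is not given here.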
Tested on: Hs578T
Assay: relative JC-1 red fluorescence (viability) vs pre-drug, coculture with fibroblast (fraction); higher = more viable cancer cells
Details: 0.1 µM
Procedure: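 JC-1 labelled TNBC cells cocultured 1:1 (1,500 cells each) with CellTrace Violet stained primary or stromal fibroblasts in 384-well plates in FluoroBrite medium, treated with one of 42 anticancer drugs at 0.1, 1, 10 or 100 uM. JC-1 red fluorescence (mitochondrial integrity in cancer cells only) was read by plate reader every 8 h for 72 h. Values are normalised to each well's pre-drug value. The stock of one drug was tenfold lower, so its dose labels may be too high.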

CCC1=C[C@@H]2CN(C1)Cc1c([nH]c3ccccc13)[C@@](C(=O)OC)(c1cc3c(cc1OC)N(C)[C@H]1[C@@](O)(C(=O)OC)[C@H](OC(C)=O)[C@]4(CC)C=CCN5CC[C@]31[C@@H]54)C2 [Vinorelbine]
Details | relative JC-1 red fluorescence
8 h | 0.94
16 h | 0.819
24 h | 0.753
32 h | 0.686
40 h | 0.589
48 h | 0.54
56 h | 0.5154
64 h | 0.4735
72 h | 0.471

relative JC-1 red fluorescence
Details | 8 h | 16 h | 24 h | 32 h | 40 h | 48 h | 56 h | 64 h | 72 h
coculture fibroblast: C12385 | 0.837 | 0.675 | 0.631 | 0.517 | 0.453 | 0.425 | 0.4 | 0.405 | 0.408
coculture fibroblast: H6013 | 0.89 | 0.7845 | 0.74199 | 0.702 | 0.655 | 0.65 | 0.633 | 0.6333 | 0.6208
coculture fibroblast: H6019 | 0.821 | 0.705 | 0.703 | 0.61 | 0.5756 | 0.551 | 0.538 | 0.5478 | 0.5428
coculture fibroblast: H6076 | 0.846 | 0.778 | 0.718 | 0.699 | 0.657 | 0.659 | 0.663 | 0.665 | 0.68
coculture fibroblast: H6231 | 0.948 | 0.864 | 0.722 | 0.664 | 0.581 | 0.544 | 0.5 | 0.48 | 0.472
coculture fibroblast: HADF | 0.9132 | 0.798 | 0.746 | 0.675 | 0.628 | 0.594 | 0.559 | 0.555 | 0.535
coculture fibroblast: HCFa | 0.881 | 0.7785 | 0.70708 | 0.608 | 0.525 | 0.491 | 0.459 | 0.438 | 0.411
coculture fibroblast: HCPF | 0.957 | 0.863 | 0.78 | 0.711 | 0.592 | 0.55 | 0.505 | 0.463 | 0.437
coculture fibroblast: HHSteC | 0.945 | 0.873 | 0.872 | 0.839 | 0.82 | 0.807 | 0.805 | 0.798 | 0.776
coculture fibroblast: HMF | 0.841 | 0.759 | 0.71 | 0.677 | 0.582 | 0.553 | 0.521 | 0.507 | 0.511
coculture fibroblast: HPFa | 0.9021 | 0.8305 | 0.735 | 0.629 | 0.563 | 0.524 | 0.487 | 0.468 | 0.43
coculture fibroblast: HUF | 0.909 | 0.743 | 0.742 | 0.639 | 0.567 | 0.54 | 0.519 | 0.522 | 0.526
coculture fibroblast: Hs27A | 0.9261 | 0.8876 | 0.819 | 0.764 | 0.6949 | 0.673 | 0.636 | 0.631 | 0.594
coculture fibroblast: Hs343T | 0.9226 | 0.772 | 0.699 | 0.655 | 0.569 | 0.5387 | 0.497 | 0.489 | 0.493
coculture fibroblast: WS1 | 0.81 | 0.706 | 0.651 | 0.531 | 0.476 | 0.462 | 0.434 | 0.441 | 0.444

Reference: the supplement of paper PMC6078165
